Measurements: PubChem BioAssay AID540256 (National Center for Advancing Translational Sciences (NCATS), 2011)
Where “and” joins values, the source holds several entries; their conditions need not be identical. Equal values may be shown once. In all, about 300,000 compounds went through this assay and about 3,700 (1.2%) were called active. This list was built around the results that the source calls inconclusive (neither active nor inactive); the mix of calls is not that of the screen. The call rests on the fitted dose curve; tested in HEK293 cells. Potencies beside an inconclusive call are fits to weak or partial responses and may not hold up.

Assay: qHTS for Inhibitors of binding or entry into cells for Lassa Virus; further: nearly all actives have a fitted effect of over 50% in size
Settings: Lassa virus pseudotype entry inhibition, cell reporter; activity change, negative = inhibition: at 37.9 µM (top of the series) unless noted
On the % scale 0 is the no-effect control and ±100 the full control effect; potency means the concentration at half of the fitted maximal effect.

Row | Structure (SMILES) | Potency | activity change, negative = inhibition
1 | O=C(NC(=S)Nc1ccccc1)c1cncc(C#Cc2ccccc2)c1 | inconclusive: 31.6 µM [inhibitor, partial curve, poor fit] | –
2 | COc1ccccc1NC(=S)NC(=O)CCc1ccccc1 | inconclusive: 25.1 µM [inhibitor, single point] | –
3 | Cc1ccc(S(=O)(=O)N(Cc2ccc(Cl)cc2)c2ccccc2C(=O)NCc2cccnc2)cc1 | inconclusive: 29.1 µM [inhibitor, single point] | –
4 | COc1ccc(-c2nc3cc([N+](=O)[O-])ccc3o2)cc1OC | inconclusive: 25.1 µM [inhibitor, single point] | –
5 | COc1ccc2sc(NC(=O)CC(C)C)nc2c1 | – | inactive: 10%
6 | CCN(CC)c1ccc(/C=C2\C(=O)NC(=S)N(c3ccc(OC)cc3OC)C2=O)o1 | inconclusive: 0.891 µM [activator, single point] | –
7 | Cc1c(C(=O)NCC2COc3ccccc3O2)oc2ccc(S(=O)(=O)N(C)C3CCCCC3)cc12 (stereo unspecified) | – | inactive: -18.8%
8 | CCOc1ccc(S(=O)(=O)NCCC(=O)N2CCCCCCC2)cc1 | inconclusive: 1.26 µM [activator, single point] | –
9 | N#CC1=C(N)Oc2c(c(=O)sc3ccccc23)C1c1cccnc1 (stereo unspecified) | inconclusive: 1.78 µM [inhibitor, full curve, poor fit] | –
10 | CC(C)c1ccc(/C=C2\NC(=S)N(Cc3cccnc3)C2=O)cc1 | inconclusive: 5.01 µM [inhibitor, single point] | –
11 | Cc1ccc2c(Cl)cc(Cl)c(OCC(=O)Nc3cc(S(=O)(=O)N(C)C)ccc3C)c2n1 | inconclusive: 35.5 µM [inhibitor, single point] | –
12 | Cc1cc(C)cc(NC(=O)Cn2c(-c3ccccc3Cl)nc3ccccc32)c1 | inconclusive: 8.91 µM [inhibitor, partial curve, poor fit] | –
13 | CCC(=NCCc1c(C)[nH]c2ccccc12)C1=C(O)CC(c2ccccc2)CC1=O (stereo unspecified) | inconclusive: 5.62 µM [inhibitor, partial curve, poor fit] | –
14 | Cc1ccc(/C=C/C(=O)N2CCc3ccccc32)o1 | inconclusive: 8.91 µM [inhibitor, full curve, poor fit] | –
15 | O=C(CSc1nc2c(c(=O)[nH]1)CN(Cc1ccc3c(c1)OCO3)CC2)Nc1cc(F)ccc1F | inconclusive: 6.31 µM [activator, full curve, poor fit] | –
16 | CCCc1c(C)nc(N2CCN(c3cccc(OC)c3)CC2)[nH]c1=O | – | inactive: -16.5% [at 46.1 µM]
17 | CC(=O)Nc1ccc(N2C(C(C)=O)=NN(c3ccccc3)C2c2cccs2)cc1 (stereo unspecified) | inconclusive: 13 µM [inhibitor, partial curve] | –
18 | Cc1ccc(CNC(=O)c2ccc3oc(=O)n(Cc4ccccc4)c3c2)cc1 | inconclusive: 3.55 µM [inhibitor, partial curve, poor fit] | –
19 | CC(C)N1C(=O)CCN(C=O)c2ccccc21 | – | inactive: -3.99%
20 | O=C1C2C3c4ccccc4C(c4ccccc43)C2C(=O)N1c1nc(-c2ccccc2)cs1 (stereo unspecified) | inconclusive: 29.1 µM [inhibitor, single point] | –
21 | CN(Cc1nc2ccc(F)cc2[nH]1)C(=O)C1CCC(=O)N(C2CC2)C1 (stereo unspecified) | inconclusive: 35.5 µM [activator, partial curve, poor fit] | –
22 | O=C(CCC(=O)OCC(=O)c1ccc(Cl)cc1)NC1CCCCC1 | – | inactive: 1.23%

Single records, from the list above. Order of values: Potency | activity change, negative = inhibition
CCC(=NCCc1c(C)[nH]c2ccccc12)C1=C(O)CC(c2ccccc2)CC1=O (stereo unspecified) as listed: inconclusive: 5.62 µM [inhibitor, partial curve, poor fit] | –
Cc1ccc(/C=C/C(=O)N2CCc3ccccc32)o1 as listed: inconclusive: 8.91 µM [inhibitor, full curve, poor fit] | –

The results go on.

Row | Structure (SMILES) | Potency | activity change, negative = inhibition
23 | Cc1ccc(OCc2nnc(N)s2)cc1C | inconclusive: 5.01 µM [activator, full curve, poor fit] | –
24 | Cc1cc(CNCc2cn(C)nc2-c2ccc(Oc3ccccc3)cc2)on1 | inconclusive: 11.2 µM [inhibitor, partial curve, poor fit] | –
25 | COc1ccc(Cl)cc1NC(=O)C1CCCN(S(=O)(=O)c2ccc3c(c2)CCCC(=O)N3)C1 (stereo unspecified) | inconclusive: 12.6 µM [inhibitor, partial curve, poor fit] | –
26 | COc1ccccc1N1C(=O)C2CC=CC(C)C2C1=O (stereo unspecified) | – | inactive: -13.8%
27 | COC(=O)Cn1c(=NC(=O)c2cccc(OC)c2)sc2cc(OC)ccc21 | – | inactive: -0.605%
28 | CCCCc1ccc(NC(=O)CSc2nc(=O)n(CCN(CC)CC)c3c2CCC3)cc1 | inconclusive: 28.2 µM [inhibitor, single point] | –
29 | COCCCNC(=O)Cn1nnc(-c2ccc(NC(=O)c3ccccc3OC)cc2)n1 | – | inactive: 14.4%
30 | CCN1CCN(Cc2c3ccccc3cc3ccccc23)CC1 | inconclusive: 35.5 µM [inhibitor, single point] | –
31 | Cc1nn(-c2ccccc2)c2c1N(CCCC(=O)NCc1ccc(OC(C)C)cc1)C(=O)CS2 | inconclusive: 11.2 µM [inhibitor, partial curve, poor fit] | –
32 | COc1ccccc1-c1ccc(/C=N/O)o1 | inconclusive: 22.4 µM [inhibitor, single point] | –
33 | Cc1cccc(NC(c2cccc(Cl)c2)c2ccc3cccnc3c2O)n1 (stereo unspecified) | active: 10 µM | –
34 | O=C(C1CC1)N1CCc2cc(Br)c(S(=O)(=O)N3CCCCCC3)cc21 | inconclusive: 7.94 µM [inhibitor, partial curve, poor fit] | –
35 | CCOC(=O)c1sc(NC(=O)Nc2cccc(Cl)c2)cc1C | inconclusive: 29.1 µM [inhibitor, single point] | –
36 | CNCCCC1Sc2ccccc2Oc2ccccc21 (stereo unspecified) | inconclusive: 35.5 µM [inhibitor, single point] | –
37 | Cc1ccc(C(=O)COC(=O)CN2C(=O)C3C4CC(C(Br)C4Br)C3C2=O)cc1 (stereo unspecified) | – | inactive: 10.1% [at 46.1 µM]
38 | CCCn1c2ccccc2c2cnn(CC(=O)Nc3ccccc3OC)c(=O)c21 | inconclusive: 35.5 µM [inhibitor, single point] | –
39 | CCN(CC)c1ccc(C2CC(=O)Nc3cc(OC)c(OC)cc32)cc1 (stereo unspecified) | inconclusive: 8.91 µM [inhibitor, partial curve, poor fit] | –
40 | O=C(CN1CCOCC1)Nc1nc(-c2ccccc2)cs1 | inconclusive: 0.562 µM [inhibitor, full curve, poor fit] | –
41 | CCOC(=O)C1(Cc2ccc(Cl)cc2)CCN(C(=O)CCc2ccncc2)CC1 | inconclusive: 35.5 µM [inhibitor, partial curve, poor fit] | –
42 | Cc1ccc(C(=O)OCC(=O)N(C)c2c(N)n(Cc3ccccc3)c(=O)[nH]c2=O)s1 | – | inactive: 3.95%
43 | COc1ccc(C(=O)c2ccsc2N)cc1 | – | inactive: 8.39%
44 | O=C(O)c1c(Cl)c(Cl)c(Cl)c(Cl)c1C(=O)N1CCCCCC1 | – | inactive: -0.99%

Row | Structure (SMILES) | Potency | activity change, negative = inhibition
45 | O=[N+]([O-])c1ccccc1N/N=C\c1ccccc1Cl | inconclusive: 0.562 µM [activator, full curve, poor fit] | –
46 | CC(C)(Oc1ccc(Cl)cc1)C(=O)NC1CCSC1=O (stereo unspecified) | – | inactive: 24.7%
47 | O=C(CC1SC(=NCCc2ccccc2)N(/N=C/c2cccs2)C1=O)Nc1ccc(Cl)cc1 (stereo unspecified) | inconclusive: 3.98 µM [inhibitor, full curve, poor fit] | –
48 | C=CCSc1nc2ccsc2c(=O)n1-c1ccccc1 | inconclusive: 5.62 µM [inhibitor, single point] | –
49 | CSc1ccccc1NC(=O)c1ccoc1C | – | inactive: -16.7%
50 | COc1ccc(NC(=O)C(c2ccc(OC)cc2)N(C)C(=O)Cc2cccs2)cc1 (stereo unspecified) | inconclusive: 20 µM [inhibitor, partial curve, poor fit] and inconclusive: 3.16 µM [inhibitor, full curve] | –
51 | CCc1ccc(NC(=O)c2cnccn2)cc1 | inconclusive: 12.6 µM [inhibitor, single point] | –
52 | CN(C)c1ccc(/C=C/C(=O)c2cccnc2)cc1 | – | inactive: 22% [at 46.1 µM]
53 | O=C1C2C3c4ccccc4C(c4ccccc43)C2C(=O)N1CN1CCOCC1 (stereo unspecified) | inconclusive: 4.11 µM [inhibitor, full curve] | –
54 | Cc1onc(-c2ccccc2Cl)c1-c1nc(-c2ccccn2)no1 | inconclusive: 0.631 µM [inhibitor, full curve, poor fit] | –
55 | Cc1cc(Cl)ccc1Oc1ncc(-c2ccc(Cl)cc2)cn1 | inconclusive: 6.31 µM [inhibitor, partial curve, poor fit] | –
56 | CCCCN(CCCNC(=O)c1cc(Nc2ccc(OC)cc2OC)nc2ccccc12)Cc1ccccc1 | inconclusive: 10 µM [inhibitor, single point] | –
57 | CC(=O)c1sc(NC(=O)CS(=O)(=O)c2ccccc2)nc1-c1ccccc1 | inconclusive: 0.631 µM [activator, single point] | –
58 | CCCn1c(=O)c(C(=O)N/N=C/c2ccccc2F)c(O)c2ccccc21 | – | inactive: 1.1%
59 | COc1ccc(-c2cn3nc(N4CCCC(C(=O)Nc5ccccc5F)C4)sc3n2)cc1 (stereo unspecified) | inconclusive: 35.5 µM [inhibitor, single point] | –
60 | COc1ccc(NC(=O)C(C)SCc2ccccc2)cc1 (stereo unspecified) | inconclusive: 3.26 µM [activator, full curve] | –
61 | COc1ccccc1-c1cc(C(=O)Nc2c(C)nn(Cc3ccc(Cl)cc3)c2C)no1 | inconclusive: 28.2 µM [inhibitor, single point] | –
62 | CSCCC(NC(=O)c1ccccc1)C(=O)O (stereo unspecified) | – | inactive: 3.45% [at 46.1 µM]
63 | COc1ccc(NC(=O)CSc2nc(-c3ccccc3)cc(-c3cc(OC)c(OC)c(OC)c3)c2C#N)c(OC)c1 | inconclusive: 22.4 µM [inhibitor, single point] | –
64 | COC(=O)C1CCN(C(=O)COC(=O)C2CCN(S(=O)(=O)c3ccc(C)c(C)c3)CC2)CC1 | inconclusive: 5.62 µM [inhibitor, single point] | –
65 | O=C(NCc1ccco1)c1cc2ccc(O)cc2oc1=O | inconclusive: 5.01 µM [inhibitor, partial curve, poor fit] | –
66 | Cc1ccc(-n2ncc3c(N4CCN(c5ccc(F)cc5)CC4)ncnc32)c(C)c1 | inconclusive: 2.91 µM [inhibitor, single point] | –

Sorted by molar mass (rising): part of the list above
Row | Structure (SMILES) | Potency | activity change, negative = inhibition
51 | CCc1ccc(NC(=O)c2cnccn2)cc1 | inconclusive: 12.6 µM [inhibitor, single point] | –
55 | Cc1cc(Cl)ccc1Oc1ncc(-c2ccc(Cl)cc2)cn1 | inconclusive: 6.31 µM [inhibitor, partial curve, poor fit] | –
59 | COc1ccc(-c2cn3nc(N4CCCC(C(=O)Nc5ccccc5F)C4)sc3n2)cc1 (stereo unspecified) | inconclusive: 35.5 µM [inhibitor, single point] | –
